Assay results reported in paper PMC10279719.

What was measured:
[1] = target: T1, PEAK1^IDR1 (residues 1082-1746), from insect cells (human) (UniProt Q9H792); test: condition: 1000 nM (highest concentration of the series); SPR; biotinylated PEAK proteins (with or without Src phosphorylation) captured with a biotin CAPture kit, 14-3-3γ as analyte; multi-cycle, 8 points, 3-fold dilutions, 0.46-1000 nM, 60 s contact, 300 s dissociation; bivalent analyte model for the estimate; both purified
T1 sequence (chain, biotin (EZ-Link NHS-PEG4-Biotin, 1,1 molar ratio)): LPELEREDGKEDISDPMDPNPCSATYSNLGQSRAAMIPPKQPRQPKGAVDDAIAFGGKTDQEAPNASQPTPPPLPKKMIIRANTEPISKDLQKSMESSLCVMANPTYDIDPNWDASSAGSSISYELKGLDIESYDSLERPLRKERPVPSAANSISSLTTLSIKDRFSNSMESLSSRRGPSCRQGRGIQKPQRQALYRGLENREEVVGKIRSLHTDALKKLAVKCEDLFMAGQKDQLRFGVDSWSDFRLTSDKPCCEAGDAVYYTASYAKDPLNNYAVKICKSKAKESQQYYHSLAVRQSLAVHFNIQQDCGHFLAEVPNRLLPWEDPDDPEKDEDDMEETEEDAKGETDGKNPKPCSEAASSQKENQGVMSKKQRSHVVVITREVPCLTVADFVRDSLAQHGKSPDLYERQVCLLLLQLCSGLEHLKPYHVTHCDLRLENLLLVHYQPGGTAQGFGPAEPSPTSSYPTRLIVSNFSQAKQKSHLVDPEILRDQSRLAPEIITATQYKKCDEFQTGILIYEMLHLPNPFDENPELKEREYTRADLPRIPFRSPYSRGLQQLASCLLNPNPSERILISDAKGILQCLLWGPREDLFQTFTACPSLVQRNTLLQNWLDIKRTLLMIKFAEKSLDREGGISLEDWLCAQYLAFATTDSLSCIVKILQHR

[2] = target: T2, HA-tagged PEAK3FL-S69A (human) (UniProt Q6ZS72); test: co-IP; anti-HA agarose IP from lysates of HEK293 cells expressing HA-PEAK3FL WT or mutants (alone or with Flag-PEAK3FL WT), Western blot
T2 sequence: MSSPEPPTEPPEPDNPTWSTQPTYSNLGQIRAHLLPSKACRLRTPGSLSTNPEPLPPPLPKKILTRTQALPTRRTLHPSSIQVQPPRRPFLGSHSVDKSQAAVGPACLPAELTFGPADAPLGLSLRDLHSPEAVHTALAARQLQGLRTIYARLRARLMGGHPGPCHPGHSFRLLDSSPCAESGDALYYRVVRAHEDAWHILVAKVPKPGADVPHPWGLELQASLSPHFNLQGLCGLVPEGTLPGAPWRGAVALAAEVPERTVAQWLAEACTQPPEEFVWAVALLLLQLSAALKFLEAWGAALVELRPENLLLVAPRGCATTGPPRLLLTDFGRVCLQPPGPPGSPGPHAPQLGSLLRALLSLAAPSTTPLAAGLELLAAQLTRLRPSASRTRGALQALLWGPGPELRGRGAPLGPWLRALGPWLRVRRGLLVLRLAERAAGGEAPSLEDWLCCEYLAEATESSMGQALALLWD

[3] = target: T2, HA-tagged PEAK3FL-S69A (human); test: co-IP; HEK293 cells transfected with HA-PEAK3^FL forms (alone or with Flag-PEAK3^FL WT), lysates on anti-HA agarose at 4 °C overnight, Western blot
[4] = target: T3, HA-tagged PEAK3^FL-A436E (human) (UniProt Q6ZS72); test: as above
T3 sequence: T2 sequence with A69S, A436E

[5] = target: T4, HA-tagged PEAK3^FL-C453E (human) (UniProt Q6ZS72); test: as above
T4 sequence: T2 sequence with A69S, C453E

[6] = target: T5, HA-tagged PEAK3^FL-L146E (human) (UniProt Q6ZS72); test: as above
T5 sequence: T2 sequence with A69S, L146E

| binding [1] | binding [2] | binding [3] | binding [4] | binding [5] | binding [6] | Substance |
| --- | --- | --- | --- | --- | --- | --- |
| no binding |  |  |  |  |  | 14-3-3γ (residues 1-247) (human) |
|  | no binding | no binding | no binding | no binding | no binding | endogenous 14-3-3 (HEK293) (human (endogenous in HEK293)) |

Residue numbers refer to the chain shown, from its start. No constants are given. Whether binding was seen depends on the method and setting. For part of these data: In cells and extracts the contact can be indirect. For part of these data: Sequences can lack the tags named with a protein.
